Test results reported in the supplement of paper PMC4683952.
The list shows a part of the results. Cut-off read from the data, not from the text of the source: active = 2 or more and inactive = the rest. This data set is noisy: repeats of one test often differ as much as different tests do.

test system: Lgr5 (MarsCy1-Lgr5-EGFP, U2OS); experiment: cell-surface Lgr5 expression (SCi1 fluorescence, background-subtracted) relative to WT DMSO (fold of DMSO control); higher = more Lgr5 at the plasma membrane; conditions: U2OS MarsCy1-Lgr5-EGFP stable; treatment time: overnight; library: ActiProbe-5K (TimTec); 25 µM

Row | SMILES | cell-surface Lgr5 expression
1 | Cc1c(C)c2c(c(C)c1N)NC(=O)CO2 | inactive: 1.25
2 | O=C1OCCN1/N=C\c1ccc([N+](=O)[O-])o1 | inactive: 1.18
3 | O=C1CC2CS(=O)(=O)CC2N1c1ccc(OC(F)(F)F)cc1 (configuration not stated) | inactive: 0.968
4 | O=C(O)CCCCCN1C(=O)/C(=C2/C(=O)Nc3ccc(Br)cc32)SC1=S | inactive: 1.41
5 | CCn1cc(C(=O)Nc2cnn(C)c2C(=O)NCc2cnn(C)c2)cn1 | inactive: 1.14
6 | CCCC(=O)Sc1[s+]sc2c1-c1cc(C)ccc1NC2(C)C.[Cl-] | inactive: 1.02
7 | C(#N)C(=C\C=c1\ccn(cc1)C1CCCCC1)/C#N | inactive: 0.722
8 | CCCCNC(=O)OCCSC(=S)NCCC | inactive: 1.22
9 | COC(=O)CN1N=C2c3ccccc3C(=O)c3cccc(c32)S1(=O)=O | inactive: 0.93
10 | Cc1cn2c(-c3ccccc3F)nc(=S)nc2s1 | inactive: 0.871
11 | Sc1nnc(-c2ccncc2)n1/N=C/C=C\c1ccco1 | inactive: 1.05
12 | Nc1nc(-c2sc3nc4c(cc3c2N)CCC4)nc(N2CCOCC2)n1 | inactive: 1.14
13 | CC(=O)C1C(=O)c2ccc(Br)cc2C1=O (configuration not stated) | inactive: 1.07
14 | CCC1CCc2c(sc(N)c2C#N)C1 (configuration not stated) | inactive: 1.53
15 | Nc1ccc2c(c1)nc1ccccn12 | inactive: 1.48
16 | COc1cccc(OC)c1-c1noc(CSc2nc3ccccc3o2)n1 | inactive: 1.15
17 | Cc1cc2c3c(c1)C(C)CC(C)(C)N3C(=O)C2=O (configuration not stated) | inactive: 1.29
18 | O=S(=O)(Nc1nccs1)c1ccc(Br)cc1 | inactive: 1
19 | COc1cc(-c2nnc(S)n2-c2ccc3c(c2)OCO3)cc(OC)c1OC | inactive: 1.49
20 | N=C(N)Nc1nc2ccccc2o1 | inactive: 1.11
21 | NC(=O)c1c(F)c(F)c(N)c(F)c1F | inactive: 1.04
22 | S=c1[nH]nc(-c2cccc(Br)c2)n1-c1ccccc1 | inactive: 1.16

Row | SMILES | cell-surface Lgr5 expression
23 | CCCCC(CC)CN1C(=O)/C(=C/c2c(NCc3ccco3)nc3ccccn3c2=O)SC1=S (configuration not stated) | inactive: 1.12
24 | O=S(=O)(Nc1nc2ccccc2s1)c1ccc(F)cc1 | inactive: 1.09
25 | Fc1cccc(Cl)c1-c1nnc2ccc3ccccc3n12 | inactive: 1.1
26 | C=CCSc1nc2c(c(=O)n1C1CCCCC1)C1(CCCCC1)Cc1ccccc1-2 | inactive: 1.11
27 | CC1(C)OC(=O)N2CCn3c(cc4ccccc43)C21C (configuration not stated) | inactive: 1.32
28 | N#CC1=C2C=CC(O)=CC2OC=C1N (configuration not stated) | inactive: 1.21
29 | CC1CCCN(c2nc3ccccn3c(=O)c2C=O)C1 (configuration not stated) | inactive: 1.22
30 | CC(=O)c1sc(N)c(C#N)c1C | inactive: 1.12
31 | Clc1ccc(CNn2cnnc2)cc1Cl | inactive: 1.23
32 | Nc1[n+]([O-])c(N)[n+]([O-])c(N)[n+]1[O-] | inactive: 1.35
33 | C1=CC2CC1CC21COC(c2ccc3oc4ccccc4c3c2)OC1 (configuration not stated) | inactive: 1.06
34 | O=C(N/N=C\c1cccs1)c1cnccn1 | inactive: 1.38
35 | O=C1C2=CNc3ccccc3NC2Oc2ccccc21 (configuration not stated) | inactive: 1.35
36 | C=CCOc1ccc2ccc(=O)oc2c1 | inactive: 1.07
37 | Cc1ccc(C(=O)CSc2nnc(-c3ccco3)o2)o1 | inactive: 0.917
38 | CC(=O)CC[C@H]1[C@H](C#N)[C@H](C(C)C)CC[C@@]1(C)OC(C)=O | inactive: 1.49
39 | O=c1nc2oc3ccccc3cc-2c2ccccc12 | active: 2.15
40 | Cn1c(=O)c(C2=NNC(=O)/C2=C/c2c(O)c3cccnc3[nH]c2=O)c(O)c2ccccc21 | inactive: 1.19
41 | COc1cc(N2C(=O)C3C4C=CC(C4)C3C2=O)nc(OC)n1 (configuration not stated) | inactive: 1.2
42 | N#Cc1cnn2cc(-c3[nH]ncc3[N+](=O)[O-])cnc12 | inactive: 1.23
43 | O=[N+]([O-])c1ccc(CS(=O)(=O)[O-])cc1.[Na+] | inactive: 1.15
44 | C#CC1(NC(C)=O)CCCCC1 | inactive: 1.19

Row | SMILES | cell-surface Lgr5 expression
45 | O=[N+]([O-])c1cnn(-c2cn[nH]c2)c1 | inactive: 1.42
46 | O=C(CCC1CCCCC1)N1CCN(C(=O)C23CC4CC(CC(C4)C2)C3)CC1 | inactive: 1.07
47 | N#CC1=C(N)Oc2c(oc(CO)cc2=O)C1c1cccs1 (configuration not stated) | inactive: 0.821
48 | COc1c(F)cc(Br)cc1[N+](=O)[O-] | inactive: 1.12
49 | Cc1nn(C)c2[nH]c(=O)cc(C(F)(F)F)c12 | inactive: 1.07
50 | c1ccc(-n2nnnc2-n2ccnc2)cc1 | inactive: 1.15
51 | CCOC(=O)C1=C(C)OC(N)=C(C#N)[C@@H]1c1ccccc1[N+](=O)[O-] | inactive: 0.92
52 | CS(=O)(=O)N1CCc2cc(S(=O)(=O)Nc3ccc4oc5c(c4c3)CCCC5)ccc21 | inactive: 1.29
53 | C1(/C(CC(CC1=O)(C)C)=O)=C(/NCC1OCCC1)C (configuration not stated) | inactive: 1.11
54 | C(=C/c1ccccc1)/C=N/Nc1nnn[nH]1 | inactive: 1.3
55 | Cn1ccnc1C(O)c1cccs1 (configuration not stated) | inactive: 1.03
56 | N/C(=N/O)C1CCCc2c1[nH]c1ccc(Br)cc21 (configuration not stated) | inactive: 1.22
57 | CN1CCN(c2nc(N(c3ccccc3)c3ccccc3)nc(-n3ccnc3)n2)CC1 | inactive: 1.09
58 | Nc1nonc1-c1noc(NCc2cccs2)n1 | inactive: 1.08
59 | Cc1cc(C)n2nnnc2c1C#N | inactive: 1
60 | Cc1sc2[nH]c(=S)n(C)c(=O)c2c1C | inactive: 1.28
61 | Cc1cc(C)n(CC(C)O)c(=O)c1C#N (configuration not stated) | inactive: 1.13
62 | Cc1oc(C23CC4CC(CC(C4)C2)C3)cc1C(=O)[O-] | inactive: 0.973
63 | C=C1OC(n2cc(C)c(=O)[nH]c2=O)CC1O (configuration not stated) | inactive: 1.02
64 | COC(=O)Oc1nsnc1N1CCOCC1 | inactive: 1.29
65 | CC1CNC(C)(C)C(O)C1 (configuration not stated) | inactive: 1.07
66 | CC1(C)C2CCC1(CS(=O)(=O)N1CCCC1C(=O)O)C(=O)C2 (configuration not stated) | inactive: 0.981

Some of the entries so far, in CSV form:
Row,SMILES,cell-surface Lgr5 expression
22,S=c1[nH]nc(-c2cccc(Br)c2)n1-c1ccccc1,inactive: 1.16
63,C=C1OC(n2cc(C)c(=O)[nH]c2=O)CC1O (configuration not stated),inactive: 1.02

Ordered by molar mass (rising): some entries from above
Row | SMILES | cell-surface Lgr5 expression
61 | Cc1cc(C)n(CC(C)O)c(=O)c1C#N (configuration not stated) | inactive: 1.13
60 | Cc1sc2[nH]c(=S)n(C)c(=O)c2c1C | inactive: 1.28
58 | Nc1nonc1-c1noc(NCc2cccs2)n1 | inactive: 1.08
53 | C1(/C(CC(CC1=O)(C)C)=O)=C(/NCC1OCCC1)C (configuration not stated) | inactive: 1.11

The list goes on.

Row | SMILES | cell-surface Lgr5 expression
67 | O=S(=O)(NCc1ccc2c(c1)OCO2)c1ccc(F)cc1 | inactive: 1.34
68 | O/N=C(\c1ccccc1)C(O)c1ccccc1 (configuration not stated) | inactive: 1.2
69 | Cc1ccc(-c2csc(=[NH2+])[nH]2)cc1.[Br-] | inactive: 1.06
70 | CCn1c(S)nc(C(N)=O)c1N | inactive: 1.32
71 | COCCCNC(=O)N1CCOCC1 | inactive: 1.15
72 | CN(C)CCC(=O)c1ccco1.Cl | inactive: 1.71
73 | N=c1nc2n(c(=N)[nH]1)NC(c1ccc(F)cc1)=CS2 | inactive: 0.713
74 | Cc1ccc(C2=Nn3c(nnc3C(F)(F)F)SC2)cc1.Cl | inactive: 0.867
75 | CSc1nc2nc(C)cc(O)n2n1 | inactive: 1.25
76 | C=CS(=O)(=O)c1ccc(OC)c(N)c1 | inactive: 1.25
77 | CCn1ncc(CN2CCN(C(=O)Cn3nc(C(F)(F)F)c(Cl)c3C3CC3)CC2)c1C | inactive: 1.1
78 | Cc1ccc2ccccc2c1C[N+](C)(C)CC#Cc1ccccc1.[Br-] | inactive: 1.34
79 | CCCCC(CC)C(=O)Nc1nnc(CC(C)C)s1 (configuration not stated) | inactive: 1.41
80 | Nc1ccc2cc(Br)c3ccccc3c2c1 | inactive: 0.76
81 | C(C1C(C(OC\C(=C(/Cl)Cl)Cl)=O)CC=CC1)(NC1CCCCC1)=O (configuration not stated) | inactive: 1.28
82 | Brc1ccc2c(c1)C(c1ccccc1)=NNC(c1ccccc1)=N2 | inactive: 0.713
83 | Cn1c(=O)c2c(ncn2CC#N)n(C)c1=O | inactive: 1.13
84 | c1ccc2c(c1)Nc1ccccc1O2 | inactive: 0.993
85 | CCOC(=O)c1c(NC(=O)CSc2nnc(C)s2)sc2c1CCC2 | inactive: 1.28
86 | CN(C)CCCNc1ccc([N+](=O)[O-])cc1[N+](=O)[O-].Cl | inactive: 1.28
87 | O=C(O)Cn1cc(Cl)c([N+](=O)[O-])n1 | inactive: 1.21
88 | CCOC(=O)c1sc(NC(=O)C(C)(C)C)c(C(=O)OCC)c1C | inactive: 1.16

Row | SMILES | cell-surface Lgr5 expression
89 | O=C1c2ccccc2-c2c(-c3ccccc3)sc(=O)n21 | inactive: 1.54
90 | CC1(C)CC2(CC(C)(C)N1)OC(=O)N(CCOC13CC4CC(CC(C4)C1)C3)C2(C)O (configuration not stated) | inactive: 1.51
91 | CCN1C(=O)/C(=C\c2c(N3CCCC3)nc3c(C)cccn3c2=O)SC1=S | inactive: 0.914
92 | S=c1oc(-c2ccco2)nn1CN1CCCCC1 | inactive: 1.13
93 | Clc1ccc(/N=C\c2cc3ccccc3nc2Cl)cc1Cl | inactive: 1.43
94 | C1CN(Cc2nnn[nH]2)CCO1 | inactive: 0.975
95 | O=C(Cc1cccs1)Nc1nccs1 | inactive: 0.939
96 | COc1c(Cl)cc(Cl)cc1Br | inactive: 1.05
97 | COc1cc2c(cc1OC)C(=O)OC2 | inactive: 1.48
98 | Nc1c([N+](=O)[O-])ncn1CCO | inactive: 1.13
99 | c1ccc(-c2ccc(CSc3nc4ccccc4o3)cc2)cc1 | inactive: 1.01
100 | CNC(=S)N1CCCC2=C[C@@H]3C[C@@H](CN4CCCC[C@H]34)[C@@H]21 | inactive: 1.29
101 | CS(=O)(=O)c1nnnn1-c1ccccc1Cl | inactive: 0.97
102 | O=S(=O)(Nc1ccc2ncccc2c1)c1ccc2oc3ccccc3c2c1 | inactive: 0.979
103 | Clc1cccc(C2Oc3ccccc3C3CC(c4ccccc4)=NN32)c1 (configuration not stated) | inactive: 0.995
104 | COc1c(Br)cc(Br)cc1/C=N/Nc1nncn1N | inactive: 1.33
105 | Nc1nonc1/C(=N\O)N1CCN(CCO)CC1 | inactive: 1.08
106 | Nn1c(S)nnc1-c1cccs1 | inactive: 1.17
107 | C1=CC2CC1CC2CN1CCN(C2CC3CCC2C3)CC1 (configuration not stated) | inactive: 1.41
